# According to doi:10.1101/2020.04.17.046342:
# Chains of the proteins cited; added tags and fusions are not shown. Lines headed by an entry give the natural chain unless they say otherwise; changes in a name come on top.
# UniProt P10085, whole entry, stated change not applied: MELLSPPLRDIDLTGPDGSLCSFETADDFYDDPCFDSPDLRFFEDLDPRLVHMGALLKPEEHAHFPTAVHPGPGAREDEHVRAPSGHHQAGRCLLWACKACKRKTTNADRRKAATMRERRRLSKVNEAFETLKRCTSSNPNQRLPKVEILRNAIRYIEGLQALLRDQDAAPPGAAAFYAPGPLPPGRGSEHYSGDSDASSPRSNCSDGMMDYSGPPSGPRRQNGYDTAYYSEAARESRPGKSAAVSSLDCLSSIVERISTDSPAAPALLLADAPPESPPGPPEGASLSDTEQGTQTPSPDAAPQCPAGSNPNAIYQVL
# Changes are numbered by the printed parent chain. Numbers in names are those of the source. Where two headings read alike, the source gives them in different places. Results are given in words; binding and its absence hold for the method and conditions named. Binding seen in cells or lysates may run through a third protein. Some entries that bind do so weakly or less than the wild type. Where a sequence is shown, tags or fusion partners need not be part of it.
# T1: HA-tagged SRF, full length (pCGN-SRF-HA) (UniProt P11831)
# T1 sequence: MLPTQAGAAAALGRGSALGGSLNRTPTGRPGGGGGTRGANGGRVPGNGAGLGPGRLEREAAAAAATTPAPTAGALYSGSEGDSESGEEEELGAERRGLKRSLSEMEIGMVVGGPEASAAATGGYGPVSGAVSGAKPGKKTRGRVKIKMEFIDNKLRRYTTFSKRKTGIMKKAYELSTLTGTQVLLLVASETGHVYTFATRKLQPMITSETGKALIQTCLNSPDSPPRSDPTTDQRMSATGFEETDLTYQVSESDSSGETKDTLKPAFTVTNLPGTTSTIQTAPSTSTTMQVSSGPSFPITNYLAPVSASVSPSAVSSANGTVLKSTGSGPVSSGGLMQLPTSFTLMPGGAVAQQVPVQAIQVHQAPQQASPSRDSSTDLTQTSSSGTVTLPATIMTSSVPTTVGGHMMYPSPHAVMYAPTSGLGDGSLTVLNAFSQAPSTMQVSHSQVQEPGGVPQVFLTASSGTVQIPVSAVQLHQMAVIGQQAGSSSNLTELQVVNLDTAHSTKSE
# T2: SRF K165A (site-directed mutant of pCGN-SRF-HA) (UniProt P11831)
# T2 sequence: T1 sequence with K165A
# T3: Flag-tagged KDM2B (pCMV-3xFlag-KDM2B) (UniProt Q8NHM5)
# T3 sequence: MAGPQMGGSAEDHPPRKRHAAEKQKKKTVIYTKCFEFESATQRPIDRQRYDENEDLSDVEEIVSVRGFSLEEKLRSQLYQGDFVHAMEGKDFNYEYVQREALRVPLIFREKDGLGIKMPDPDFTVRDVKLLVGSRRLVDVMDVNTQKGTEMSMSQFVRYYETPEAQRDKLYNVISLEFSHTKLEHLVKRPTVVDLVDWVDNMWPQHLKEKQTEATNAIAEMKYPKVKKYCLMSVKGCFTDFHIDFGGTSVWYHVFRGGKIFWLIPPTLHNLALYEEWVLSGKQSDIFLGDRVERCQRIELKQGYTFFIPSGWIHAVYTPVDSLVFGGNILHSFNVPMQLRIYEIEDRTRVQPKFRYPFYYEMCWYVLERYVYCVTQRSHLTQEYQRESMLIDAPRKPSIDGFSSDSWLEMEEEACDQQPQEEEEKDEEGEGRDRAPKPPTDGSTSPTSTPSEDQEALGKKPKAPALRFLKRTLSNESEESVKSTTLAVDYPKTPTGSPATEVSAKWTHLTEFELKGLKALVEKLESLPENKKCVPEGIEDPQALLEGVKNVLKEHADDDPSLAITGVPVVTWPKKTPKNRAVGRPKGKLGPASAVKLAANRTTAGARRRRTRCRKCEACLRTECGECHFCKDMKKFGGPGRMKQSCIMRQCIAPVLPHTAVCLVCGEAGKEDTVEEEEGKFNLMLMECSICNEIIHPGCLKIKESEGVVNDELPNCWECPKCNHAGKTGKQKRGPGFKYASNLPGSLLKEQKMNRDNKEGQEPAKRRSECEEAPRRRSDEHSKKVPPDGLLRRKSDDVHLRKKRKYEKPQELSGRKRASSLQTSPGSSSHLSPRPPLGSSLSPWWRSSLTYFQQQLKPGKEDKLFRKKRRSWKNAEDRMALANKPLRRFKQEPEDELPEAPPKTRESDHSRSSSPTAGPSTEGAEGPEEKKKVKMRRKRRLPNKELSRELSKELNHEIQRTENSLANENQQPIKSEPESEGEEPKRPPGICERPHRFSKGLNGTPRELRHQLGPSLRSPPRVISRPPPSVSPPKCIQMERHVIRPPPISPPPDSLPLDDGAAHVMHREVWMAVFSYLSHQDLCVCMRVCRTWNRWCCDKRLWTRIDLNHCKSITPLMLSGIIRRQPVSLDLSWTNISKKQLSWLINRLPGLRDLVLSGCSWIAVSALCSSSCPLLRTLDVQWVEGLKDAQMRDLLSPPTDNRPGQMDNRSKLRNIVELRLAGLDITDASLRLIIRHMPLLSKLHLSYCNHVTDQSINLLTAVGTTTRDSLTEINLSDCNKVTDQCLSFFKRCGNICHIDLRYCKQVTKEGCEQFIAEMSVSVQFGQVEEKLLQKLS
# B1: HA-tagged SRF, full length (pCGN-SRF-HA) (protein, UniProt P11831 1-508)
# chain: T1 sequence
# B2: SET7 (as tested with SRF WT and SRF K165A, Fig EV7E) (enzyme, UniProt Q8WTS6 1-366)
# chain: MDSDDEMVEEAVEGHLDDDGLPHGFCTVTYSSTDRFEGNFVHGEKNGRGKFFFFDGSTLEGYYVDDALQGQGVYTYEDGGVLQGTYVDGELNGPAQEYDTDGRLIFKGQYKDNIRHGVCWIYYPDGGSLVGEVNEDGEMTGEKIAYVYPDERTALYGKFIDGEMIEGKLATLMSTEEGRPHFELMPGNSVYHFDKSTSSCISTNALLPDPYESERVYVAESLISSAGEGLFSKVAVGPNTVMSFYNGVRITHQEVDSRDWALNGNTLSLDEETVIDVPEPYNHVSKYCASLGHKANHSFTPNCIYDMFVHPRFGPIKCIRTLRAVEADEELTVAYGYDHSPPGKSGPEAPEWYQVELKAFQATQQK
# How the values were obtained:
# Test in all cases: co-IP
# [1] = molecular target: T1, HA-tagged SRF, full length (pCGN-SRF-HA)
# [2] = molecular target: T2, SRF K165A (site-directed mutant of pCGN-SRF-HA)
# [3] = molecular target: T3, Flag-tagged KDM2B (pCMV-3xFlag-KDM2B)
# [4] = molecular target: T3, Flag-tagged KDM2B (pCMV-3xFlag-KDM2B); remark: listed apart in the source
# [5] = molecular target: T1, HA-tagged SRF, full length (pCGN-SRF-HA); remark: listed apart in the source
# [6] = molecular target: T2, SRF K165A (site-directed mutant of pCGN-SRF-HA); remark: listed apart in the source
molecule,measurement,setting,value
"MyoD (as tested with SRF WT and SRF K165A, Fig EV7D) (from UniProt P10085 1-318)",binding,[1],binds
same,binding,[2],binds
B1,binding,[3],binds
same,binding,[4],binds
B2,binding,[5],binds
same,binding,[6],binds
